Data on seven molecules can be found in article PMC8201403.

The chains behind the UniProt entries cited, without tags or fusion partners. Residues count along the entry.
UniProt P68871: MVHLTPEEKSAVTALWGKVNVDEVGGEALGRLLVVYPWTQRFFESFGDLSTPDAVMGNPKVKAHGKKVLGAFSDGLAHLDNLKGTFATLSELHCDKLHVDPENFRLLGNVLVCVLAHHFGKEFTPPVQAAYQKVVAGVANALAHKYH
UniProt P02787, residues 20-698: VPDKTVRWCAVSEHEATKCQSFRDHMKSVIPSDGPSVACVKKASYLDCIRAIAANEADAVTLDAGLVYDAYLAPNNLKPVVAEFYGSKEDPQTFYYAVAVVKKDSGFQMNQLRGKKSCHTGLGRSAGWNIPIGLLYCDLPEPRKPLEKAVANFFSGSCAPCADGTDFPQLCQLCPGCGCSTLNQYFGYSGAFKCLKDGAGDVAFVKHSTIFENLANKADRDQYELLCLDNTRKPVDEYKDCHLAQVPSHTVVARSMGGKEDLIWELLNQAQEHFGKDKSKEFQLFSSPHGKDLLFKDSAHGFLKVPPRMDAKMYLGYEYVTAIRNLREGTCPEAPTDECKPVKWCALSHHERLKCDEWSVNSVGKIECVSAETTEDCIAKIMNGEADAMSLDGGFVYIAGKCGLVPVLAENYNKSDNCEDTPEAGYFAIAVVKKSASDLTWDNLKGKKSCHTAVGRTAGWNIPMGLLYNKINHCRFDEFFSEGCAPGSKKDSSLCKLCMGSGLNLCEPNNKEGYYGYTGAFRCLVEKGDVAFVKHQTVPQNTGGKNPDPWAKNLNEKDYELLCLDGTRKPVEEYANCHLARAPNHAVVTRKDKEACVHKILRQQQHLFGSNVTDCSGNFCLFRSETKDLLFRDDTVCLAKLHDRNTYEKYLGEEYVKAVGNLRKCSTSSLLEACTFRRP
UniProt P02768, residues 25-609: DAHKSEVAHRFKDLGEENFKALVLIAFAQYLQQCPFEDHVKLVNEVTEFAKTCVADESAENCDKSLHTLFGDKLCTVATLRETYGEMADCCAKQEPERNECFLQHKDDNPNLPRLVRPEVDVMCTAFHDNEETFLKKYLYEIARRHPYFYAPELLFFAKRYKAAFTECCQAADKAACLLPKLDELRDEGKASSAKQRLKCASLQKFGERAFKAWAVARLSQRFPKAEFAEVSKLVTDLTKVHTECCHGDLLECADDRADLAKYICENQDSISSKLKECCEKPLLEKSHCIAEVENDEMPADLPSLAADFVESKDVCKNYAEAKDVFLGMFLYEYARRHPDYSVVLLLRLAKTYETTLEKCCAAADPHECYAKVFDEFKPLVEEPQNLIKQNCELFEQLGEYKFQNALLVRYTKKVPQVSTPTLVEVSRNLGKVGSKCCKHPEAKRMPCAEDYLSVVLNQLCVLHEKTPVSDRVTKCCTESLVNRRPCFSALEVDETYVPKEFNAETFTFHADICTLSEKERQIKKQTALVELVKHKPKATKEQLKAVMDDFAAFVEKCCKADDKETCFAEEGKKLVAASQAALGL

The target in assay [1] is HBB, endogenous (human (endogenous in Bel-7402)) (UniProt P68871). Put plainly: co-IP; RPL7A/HBB precipitated with anti-RPL7A/HBB antibodies in Bel-7402 cells; NDP and NUP detected with their antibodies; cells with NMT1 knocked down or ectopically expressed, POTEE knocked down or ectopically expressed (Figures 7F, 7G).
In assay [2] the target is T1, N-myristoyltransferase 1 (NMT1), endogenous (human (endogenous in Bel-7402 and Bel-7404)) (UniProt P30419).
T1 sequence: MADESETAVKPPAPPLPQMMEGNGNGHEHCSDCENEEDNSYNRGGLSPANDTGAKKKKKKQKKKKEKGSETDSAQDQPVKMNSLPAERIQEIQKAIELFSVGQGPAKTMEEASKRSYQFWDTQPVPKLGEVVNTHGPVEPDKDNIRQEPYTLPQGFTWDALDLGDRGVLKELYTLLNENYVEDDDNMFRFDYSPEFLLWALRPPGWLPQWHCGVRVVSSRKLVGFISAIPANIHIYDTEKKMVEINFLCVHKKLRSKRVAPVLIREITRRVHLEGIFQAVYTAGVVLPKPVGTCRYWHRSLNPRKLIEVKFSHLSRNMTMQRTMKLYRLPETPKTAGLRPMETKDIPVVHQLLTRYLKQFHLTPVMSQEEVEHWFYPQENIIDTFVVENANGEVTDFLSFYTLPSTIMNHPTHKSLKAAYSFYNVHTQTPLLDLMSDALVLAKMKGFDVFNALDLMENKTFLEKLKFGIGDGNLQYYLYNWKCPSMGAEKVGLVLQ
Put plainly: co-IP; endogenous NMT1 precipitated with anti-NMT1 antibodies in Bel-7402 and Bel-7404 cells overexpressing WT or mutant NDP/NUP-HA, with or without increasing POTEE plasmid.

In assay [3] the target is T2, AHSG-HA (UniProt P02765).
T2 sequence: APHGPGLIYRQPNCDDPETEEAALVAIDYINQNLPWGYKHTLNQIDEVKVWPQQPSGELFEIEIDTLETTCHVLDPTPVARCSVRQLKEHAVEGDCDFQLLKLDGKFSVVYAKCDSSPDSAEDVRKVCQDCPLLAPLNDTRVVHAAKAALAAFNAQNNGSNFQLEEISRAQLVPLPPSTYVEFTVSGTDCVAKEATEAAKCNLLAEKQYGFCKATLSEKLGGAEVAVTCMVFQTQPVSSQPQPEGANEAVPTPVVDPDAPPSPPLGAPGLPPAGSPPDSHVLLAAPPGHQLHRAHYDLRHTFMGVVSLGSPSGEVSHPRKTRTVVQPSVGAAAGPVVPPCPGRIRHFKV
The experiment in a line: co-IP; NDP/NUP-HA (WT or Mut) precipitated with anti-HA in Bel-7402 cells; RPL7A, HBB and HIST1H4H detected with their antibodies (Figure 7A).

The target in assay [4] is TF-HA (UniProt P02787). Described as above.

No constants are given. Whether binding was seen depends on the method and setting. Binding seen in cells or lysates may run through a third protein. Some binding calls cover weakened binding; strength is not graded here. For some assays here: Tags and fused reporters may be left off the sequences shown.

For “Serotransferrin (TF), endogenous (from UniProt P02787 20-698)”, in assay [1], the binding result is reported as “binds”.

Consider ALB-HA (from UniProt P02768 25-609), for which the binding entry in assay [2] was “binds”.

With TF-HA (from UniProt P02787 20-698), in assay [2], the binding result was “binds”.

Take “HBB, endogenous (from UniProt P68871 1-147)”: the binding result in assay [3] and in assay [4] was “binds” in each case.

B1: LXN-HA (protein, UniProt Q9BS40 1-222)
chain: MEIPPTNYPASRAALVAQNYINYQQGTPHRVFEVQKVKQASMEDIPGRGHKYHLKFAVEEIIQKQVKVNCTAEVLYPSTGQETAPEVNFTFEGETGKNPDEEDNTFYQRLKSMKEPLEAQNIPDNFGNVSPEMTLVLHLAWVACGYIIWQNSTEDTWYKMVKIQTVKQVQRNDDFIELDYTILLHNIASQEIIPWQMQVLWHPQYGTKVKHNSRLPKEVQLE
Regarding B1, the binding entry in assay [2] is “binds”.

B2: Alpha 2-HS glycoprotein (AHSG), endogenous (protein, UniProt P02765 19-367)
chain: T2 sequence
Consider B2, for which the binding entry in assay [1] is “binds”.

B3: AHSG-HA (protein, UniProt P02765 19-367)
chain: T2 sequence
Regarding B3, the binding entry in assay [2] is recorded as “binds”.
